Test results reported in publication doi:10.1101/2022.09.12.507586.
No constants are given. Whether binding was seen depends on the method and setting. Some entries that bind do so weakly or less than the wild type. Tags and fused reporters may be left off the sequences shown.

Key:
[1] = target: Cys-FtsZ (Cys-tagged FtsZ) (Myxococcus xanthus) (UniProt Q1D0T7); assay: high-speed centrifugation
[2] = target: untagged FtsZ (Myxococcus xanthus) (UniProt Q1D0T7); assay: high-speed centrifugation

binding [1]	binding [2]	Binder
binds		Cys-FtsZ (Cys-tagged FtsZ) (protein, UniProt Q1D0T7 1-405) MDQFDQNKQAAKIRVVGAGGAGCNAVNTMILSKLDRVDFIAANTDVQALAASKAPTRLQLGQTLTKGLGAGANPEMGREAALESRDQIAAVLEGADMVFVTAGMGGGTGTGAAPIIADIAKSLGCLTVGVVTKPFLFEGNKRRKQAEQGIVELKAAVDTLITIPNQRLLSLSNEPMPLLETFKRADEVLLNAVQGISDLIQYHGYINVDFADVKTIMSDKGIALMGTGNSTGDKRALIAMQQAIASPLLEDVTIDGATGLLINITGGRDMTLQEVNEALTLVHDAADSEAEIIFGSLIDENISDEVKITIIATGFVHRDAPKVRTVAPVVQVPLSRPAPSVLANAREEVASLVPTKGSGSRPLTVESAKSVSARTAVVKDAPLPLDEDQFDIPTFLRRQGQTELP
	binds	untagged FtsZ (protein, UniProt Q1D0T7 1-405) MDQFDQNKQAAKIRVVGAGGAGCNAVNTMILSKLDRVDFIAANTDVQALAASKAPTRLQLGQTLTKGLGAGANPEMGREAALESRDQIAAVLEGADMVFVTAGMGGGTGTGAAPIIADIAKSLGCLTVGVVTKPFLFEGNKRRKQAEQGIVELKAAVDTLITIPNQRLLSLSNEPMPLLETFKRADEVLLNAVQGISDLIQYHGYINVDFADVKTIMSDKGIALMGTGNSTGDKRALIAMQQAIASPLLEDVTIDGATGLLINITGGRDMTLQEVNEALTLVHDAADSEAEIIFGSLIDENISDEVKITIIATGFVHRDAPKVRTVAPVVQVPLSRPAPSVLANAREEVASLVPTKGSGSRPLTVESAKSVSARTAVVKDAPLPLDEDQFDIPTFLRRQGQTELP
